In PMC5353548:
These are yes or no findings as the source states them, for the method shown. Binding seen in cells or lysates may run through a third protein. Some binding calls cover weakened binding; strength is not graded here.

Protein sequences, listed by entry. Tags and fused reporters are not part of them.
UniProt O08530: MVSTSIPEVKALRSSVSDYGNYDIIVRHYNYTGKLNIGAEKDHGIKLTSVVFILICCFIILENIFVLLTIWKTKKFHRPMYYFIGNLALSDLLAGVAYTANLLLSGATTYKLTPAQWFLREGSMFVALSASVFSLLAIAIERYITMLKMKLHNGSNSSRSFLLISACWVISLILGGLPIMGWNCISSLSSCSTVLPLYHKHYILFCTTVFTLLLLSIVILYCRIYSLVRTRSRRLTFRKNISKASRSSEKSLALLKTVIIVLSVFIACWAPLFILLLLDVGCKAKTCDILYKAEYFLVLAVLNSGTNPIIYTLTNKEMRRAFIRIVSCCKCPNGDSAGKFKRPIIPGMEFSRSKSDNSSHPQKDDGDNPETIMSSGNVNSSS
UniProt P32121: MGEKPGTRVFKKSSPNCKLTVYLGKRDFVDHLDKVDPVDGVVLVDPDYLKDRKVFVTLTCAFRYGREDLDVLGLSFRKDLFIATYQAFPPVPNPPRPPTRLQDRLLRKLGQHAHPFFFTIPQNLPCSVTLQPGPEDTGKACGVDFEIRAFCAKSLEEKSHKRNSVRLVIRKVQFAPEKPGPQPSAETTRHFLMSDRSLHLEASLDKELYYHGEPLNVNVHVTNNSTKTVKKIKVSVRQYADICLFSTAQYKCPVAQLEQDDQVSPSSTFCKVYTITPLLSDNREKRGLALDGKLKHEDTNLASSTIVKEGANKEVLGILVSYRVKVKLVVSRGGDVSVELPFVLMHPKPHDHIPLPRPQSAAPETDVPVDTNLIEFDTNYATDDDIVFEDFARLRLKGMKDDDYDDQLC

Molecular target: S1P1 receptor-FLAG (UniProt O08530)
Assay: co-IP; SH-SY5Y cells, serum-starved 18 hr with or without 1 μM α-Syn(A53T), 100 nM S1P for the indicated times, cross-linked with 2 mM DSP for 20 min, lysed in 0.2% DDM buffer; anti-FLAG beads; blot with anti-β-arrestin 2

binding: binds
Substance: β-arrestin 2-YFP (from UniProt P32121 1-409)
